Literature values, collected in patent publication US6395294B1, “Method of visualization of the vitreous during vitrectomy” (priority 2000, dated 2002).
For at least one compound, name, drawing or mass did not settle the structure.

Assays:
[1] = tested on: fibroblast growth; settings: single injection of 1 mg in the vitreous
[2] = tested on: blood retinal barrier; settings: in vivo

**Q.** Which fibroblast growth [1] does the source give for `C[C@@H]1C[C@H]2[C@@H]3CCC4=CC(=O)C=C[C@]4(C)[C@@]3(F)[C@@H](O)C[C@]2(C)[C@@]1(O)C(=O)CO` [dexamethasone, 9α-fluoro-16α-methylprednisolone] here?
**A.** The fibroblast growth was “inhibited fibroblast growth”.

**Q.** And the “effect on blood retinal barrier breakdown” value [2]?
**A.** Its value is “significant effect”.
